Experimental data reported in article PMC6987383.
Results are given in words; binding and its absence hold for the method and conditions named. Binding seen in cells or lysates may run through a third protein. Some binding calls cover weakened binding; strength is not graded here.

Sequences of proteins named here, by UniProt entry; tags and fusion partners are left off.
UniProt Q01860: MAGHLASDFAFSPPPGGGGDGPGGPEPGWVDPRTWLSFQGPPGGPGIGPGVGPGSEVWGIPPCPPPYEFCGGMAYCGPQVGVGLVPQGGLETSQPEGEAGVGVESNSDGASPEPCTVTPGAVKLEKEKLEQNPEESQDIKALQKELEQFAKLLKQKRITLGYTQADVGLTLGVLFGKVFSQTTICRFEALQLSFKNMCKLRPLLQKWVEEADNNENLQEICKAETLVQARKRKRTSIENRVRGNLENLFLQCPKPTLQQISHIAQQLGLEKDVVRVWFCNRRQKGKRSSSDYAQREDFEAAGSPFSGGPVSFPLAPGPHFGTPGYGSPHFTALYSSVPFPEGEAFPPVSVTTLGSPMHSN
UniProt P35222: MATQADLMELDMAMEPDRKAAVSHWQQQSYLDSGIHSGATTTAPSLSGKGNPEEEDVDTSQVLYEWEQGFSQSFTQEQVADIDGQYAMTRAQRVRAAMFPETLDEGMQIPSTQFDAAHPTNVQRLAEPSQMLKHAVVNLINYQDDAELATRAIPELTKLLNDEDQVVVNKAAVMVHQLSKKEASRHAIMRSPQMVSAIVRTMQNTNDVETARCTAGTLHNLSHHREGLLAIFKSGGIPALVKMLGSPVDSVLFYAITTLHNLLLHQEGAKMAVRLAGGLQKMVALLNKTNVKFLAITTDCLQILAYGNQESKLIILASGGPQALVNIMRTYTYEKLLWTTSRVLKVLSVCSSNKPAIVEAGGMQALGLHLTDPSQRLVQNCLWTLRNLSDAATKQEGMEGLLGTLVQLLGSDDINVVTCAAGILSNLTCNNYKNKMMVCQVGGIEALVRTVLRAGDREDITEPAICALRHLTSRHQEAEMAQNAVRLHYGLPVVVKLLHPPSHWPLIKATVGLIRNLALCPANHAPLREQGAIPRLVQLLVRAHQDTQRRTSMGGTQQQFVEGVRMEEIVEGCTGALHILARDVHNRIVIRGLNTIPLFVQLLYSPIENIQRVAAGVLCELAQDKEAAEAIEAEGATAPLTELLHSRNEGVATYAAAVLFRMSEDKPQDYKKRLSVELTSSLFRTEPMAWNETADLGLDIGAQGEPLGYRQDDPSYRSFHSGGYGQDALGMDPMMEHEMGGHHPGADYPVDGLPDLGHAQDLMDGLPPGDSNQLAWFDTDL

Legend:
[1] = target: OCT4 (human (endogenous in hESCs)) (UniProt Q01860); test: co-IP; lysate of day 2 neuroectoderm differentiation cells (LDN193189 and SB431542 treatment), WT and BAF250a KO; anti-OCT4 IP, blots for β-CATENIN and active β-CATENIN
[2] = target: OCT4 (human (endogenous in hESCs)) (UniProt Q01860); test: co-IP; lysate of day 1 differentiated (mesodermal) hESCs, WT and BAF250a KO (4-OHT); anti-OCT4 antibody with Dynabeads at 4°C overnight; lysis buffer 20 mM HEPES pH 8.0, 150 mM NaCl, 1% NP-40, 2 mM EDTA; blots for β-CATENIN, active β-CATENIN and BRG1

β-CATENIN (from UniProt P35222 1-781)
binding [1]: binds
binding [2]: binds
